Laboratory results: PubChem BioAssay AID540276 (National Center for Advancing Translational Sciences (NCATS), 2011)
In all, about 300,000 compounds went through this assay and about 5,400 (1.8%) were called active. Inconclusive means that the source gave no clear call. Such entries were picked first, then a sample of the others. The call rests on the fitted dose curve; tested in HEK293 cells. Potencies beside an inconclusive call are fits to weak or partial responses and may not hold up.

experiment: qHTS for inhibitors of binding or entry into cells for Marburg Virus; conditions: Marburg virus pseudotyped entry inhibition, cell reporter; series mostly up to 37.8 µM
Potency means the concentration at half of the fitted maximal effect.

| Compound | Potency |
| --- | --- |
| CCCn1c(C)cc(C=O)c1C | inconclusive: 3.55 µM [activator, single point] |
| Cn1c(=NC(=O)CN2C(=O)C3CC=CCC3C2=O)sc2ccccc21 (configuration not stated) | inactive |
| CCOc1ccc(-c2cc3nc(C4CCN(C(=O)OC(C)(C)C)CC4)c(C(=O)Nc4ccc(C(=O)OC)cc4)cn3n2)cc1 | inconclusive: 2 µM [inhibitor, partial curve, poor fit] |
| O=C1C2C3C=CC(C4CC34)C2C(=O)N1CCc1ccccc1 (configuration not stated) | inconclusive: 35.5 µM [activator, single point] |
| O=C(CCCc1ccccc1)Nc1nccs1 | inconclusive: 0.708 µM [activator, single point] |
| O=C(O)CCCc1ccccc1 | inactive |
| Cc1ccc(S(=O)(=O)N2CCC(C(=O)NCC3CCCCC3)CC2)cc1 | inactive |
| O=C(CSc1ccc(-c2ccncc2)nn1)N1CCCC1 | inconclusive: 5.62 µM [inhibitor, single point] |
| Cc1cc(C)c(S(=O)(=O)Nc2ccc(Cl)cn2)c(C)c1 | inactive |
| Cc1ncc([N+](=O)[O-])n1S(=O)(=O)c1cc(Cl)ccc1Cl | inactive |
| COc1cc(OC)c(OC)cc1CN1CCN(Cc2ccc(SC)cc2)CC1 | active: 7.3 µM |
| O=C(O)c1cccc2cccnc12 | inactive |
| O=C(COc1ccc(Br)cc1)N1CCc2ccccc2C1 | inconclusive: 14.1 µM [inhibitor, single point] |
| C#Cc1cccc(C(=O)N2CCCC(CCC(=O)NCc3ccccc3F)C2)c1 (configuration not stated) | inactive |
| Cc1cc(C(=O)COC(=O)CCc2nc3ccccc3c(=O)[nH]2)c(C)n1CC1CCCO1 (configuration not stated) | inactive |
| CCC(Sc1nnc(-c2ccco2)n1C)C(=O)Nc1nnc(C)s1 (configuration not stated) | inconclusive: 0.891 µM [inhibitor, full curve, poor fit] |
| Cc1ccc(SCC(=O)Nc2ccccc2C(=O)N2CCOCC2)cc1 | inconclusive: 1.78 µM [inhibitor, partial curve, poor fit] |
| COc1ccc(CN(C)Cc2cc(=O)oc3cc(C)c(C(C)C)cc23)cc1OC | inconclusive: 10 µM [inhibitor, partial curve, poor fit] |
| O=C(/C=C\c1ccco1)Nc1nc(-c2ccccc2)cs1 | inconclusive: 31.6 µM [activator, single point] |
| CN(C)S(=O)(=O)c1ccc(N2CCCC2)c(C(=O)Nc2nc3ccccc3s2)c1 | inconclusive: 35.5 µM [inhibitor, single point] |
| Cc1ccc(/C=c2\sc3nc(-c4ccco4)nn3c2=O)o1 | inactive |
| CCc1ccc(NC(=O)N(C2CCC(C)CC2)C2CCN(C(C)=O)CC2)cc1 (configuration not stated) | inactive |
| Cn1nc(-c2ccccc2)c(CSc2cccc(Cl)c2)c1Cl | inconclusive: 25.1 µM [inhibitor, single point] |
| CN1C(=O)c2ccc(NC(=O)c3ccc(N4CCCCC4)c([N+](=O)[O-])c3)cc2C1=O | inactive |

Filtered by structure, the entries above containing a furan ring, fused or not (three)

| Compound | Potency |
| --- | --- |
| CCC(Sc1nnc(-c2ccco2)n1C)C(=O)Nc1nnc(C)s1 (configuration not stated) | inconclusive: 0.891 µM [inhibitor, full curve, poor fit] |
| O=C(/C=C\c1ccco1)Nc1nc(-c2ccccc2)cs1 | inconclusive: 31.6 µM [activator, single point] |
| Cc1ccc(/C=c2\sc3nc(-c4ccco4)nn3c2=O)o1 | inactive |

Part of the list above in order of molecular weight, low to high:

| Compound | Potency |
| --- | --- |
| O=C(/C=C\c1ccco1)Nc1nc(-c2ccccc2)cs1 | inconclusive: 31.6 µM [activator, single point] |
| O=C(COc1ccc(Br)cc1)N1CCc2ccccc2C1 | inconclusive: 14.1 µM [inhibitor, single point] |
| CN1C(=O)c2ccc(NC(=O)c3ccc(N4CCCCC4)c([N+](=O)[O-])c3)cc2C1=O | inactive |

Following part

| Compound | Potency |
| --- | --- |
| C=CCNC(=S)Nc1cc(Cl)ccc1OC | inactive |
| CSC(=Nc1ccccc1)C(C#N)c1nc2ccccc2[nH]1 (configuration not stated) | inconclusive: 0.282 µM [inhibitor, full curve, poor fit] |
| O=C(C(Sc1ccccc1)c1ccccc1)N1CCN(c2ccccc2)CC1 (configuration not stated) | inconclusive: 1.16 µM [activator, single point] |
| CCc1nc2ccccc2[nH]1 | inactive |
| Cc1cccc(NC(=O)CSc2nnc(-c3cccs3)o2)c1 | inconclusive: 2 µM [activator, full curve] |
| O=C(COC(=O)c1ccc(Cl)s1)c1cc2ccccc2o1 | inconclusive: 0.146 µM [inhibitor, full curve, poor fit] |
| O=C(O)CCCN1C(=O)/C(=C/c2ccncc2)SC1=S | inconclusive: 35.5 µM [inhibitor, single point] |
| Cc1ccc(NC(=O)CN(C)C(=O)CSc2nc3ccccc3o2)cc1 | inconclusive: 0.316 µM [inhibitor, full curve, poor fit] |
| CCc1noc(C)c1C(=O)Nc1nc2ccc(F)cc2s1 | inconclusive: 1.58 µM [activator, partial curve, poor fit] |
| CCOC(=O)c1cnn(-c2ccccc2)c1-n1cccc1 | inactive |
| Cc1ccc(-c2noc(C3CCCN(S(=O)(=O)c4ccc5ccccc5c4)C3)n2)o1 (configuration not stated) | inactive |
| O=C(COc1ccc(Cl)cc1Br)Nc1ccccc1N1CCCC1 | inconclusive: 22.4 µM [inhibitor, single point] |
| Cc1ccc(-c2c(C(=O)N3CCN(c4cccc(C)c4C)CC3)oc(=O)c3ccccc23)cc1 | inconclusive: 35.5 µM [inhibitor, single point] |
| CC(C)N(CCNC(=O)c1ccc(CS(=O)(=O)c2c(Cl)cccc2Cl)o1)Cc1ccccc1 | inconclusive: 22.4 µM [inhibitor, partial curve, poor fit] |
| Cc1cccc(NC(=O)Cn2cc(S(=O)(=O)c3ccc(F)cc3)c(=O)c3cc4c(cc32)OCO4)c1 | inactive |
| Cc1cccc(NC(=O)CSCC(=O)Nc2ccc(S(=O)(=O)N3CCCCC3)cc2)c1 | inconclusive: 35.5 µM [inhibitor, single point] |
| O=c1[nH]c(C2CCN(S(=O)(=O)c3ccccc3F)CC2)nc2c1nnn2Cc1ccc(F)cc1 | inconclusive: 12.6 µM [inhibitor, single point] |
| N[C@@H](Cc1ccccc1)c1nnc(SCc2ccccc2F)o1 | inactive |
| Cc1ccccc1Cc1c(C)nc2nc(SCC(=O)NCCCN3CCCC3)nn2c1C | inconclusive: 20 µM [inhibitor, partial curve, poor fit] |
| Cc1ccc2nc(/N=C(\N)NC(=O)N3c4ccccc4Sc4ccccc43)nc(C)c2c1 | inactive |
| O=C(CSc1nc(-c2ccccc2)c(-c2ccccc2)[nH]1)NCc1ccco1 | inconclusive: 10.3 µM [inhibitor, partial curve] |
| O=C(c1cc(F)cc2c1OCOC2)N1CCN(c2ccc(F)cc2)CC1 | inconclusive: 35.5 µM [activator, partial curve, poor fit] |
| O=C(COC(=O)c1ccc(O)cc1O)NC1CCS(=O)(=O)C1 (configuration not stated) | inactive |
| CC(C)=CC(=O)Nc1nnc(-c2ccccc2)s1 | inconclusive: 0.082 µM [activator, full curve, poor fit] |

| Compound | Potency |
| --- | --- |
| CCc1nnc(NC(=O)CCS(=O)(=O)c2ccc(C)cc2)s1 | inconclusive: 10 µM [inhibitor, partial curve, poor fit] |
| O=C(O)CCn1cc(C=C2C(=O)NC(=S)NC2=O)c(-c2ccccc2)n1 | inconclusive: 3.16 µM [inhibitor, single point] |
| CC(=O)c1ccc(N2C(=NC(=O)C3CCCO3)SC3CS(=O)(=O)CC32)cc1 (configuration not stated) | inconclusive: 2.82 µM [activator, full curve, poor fit] |
| O=C(CNC(=O)c1ccc(Cl)cc1Cl)NCC1CCCO1 (configuration not stated) | inactive |
| Clc1ccc(-c2cn(-c3ccc(Cl)cc3)c3[n+]2CCCCC3)cc1 | inconclusive: 35.5 µM [inhibitor, single point] |
| CC12CCC3C(CCC4C/C(=N/O)CCC43C)C1CCC2O (configuration not stated) | inactive |
| COc1ccc(C(CNC(=O)c2ccc(-c3cccc(C(F)(F)F)c3)o2)N2CCOCC2)cc1 (configuration not stated) | inconclusive: 35.5 µM [inhibitor, single point] |
| O=[N+]([O-])c1cccnc1N1CCCNCC1 | inactive |
| CCOc1ccc(-n2c(SCC(=O)Nc3ccccc3OC)nc3c(oc4ccccc43)c2=O)cc1 | inconclusive: 15.8 µM [inhibitor, partial curve, poor fit] |
| Cc1ccc(NC(=O)CN(C)C(=O)CSc2nc(C)cc(C)n2)cc1 | inconclusive: 0.708 µM [inhibitor, full curve, poor fit] |
| Cc1noc(NS(=O)(=O)c2ccc(N/C=C\C(=O)c3cccc4ccccc34)cc2)c1C | inconclusive: 35.5 µM [activator, single point] |
| CN(C)c1nc(=NCc2cccs2)ss1 | inconclusive: 10 µM [inhibitor, partial curve, poor fit] |
| COc1ccccc1OCC(=O)N(Cc1ccc(N(C)C)cc1)CC1CCCO1 (configuration not stated) | inactive |
| Cc1cc(C(=O)Cn2cncn2)c(C)n1CCc1ccc(F)cc1 | inconclusive: 3.55 µM [inhibitor, partial curve, poor fit] |
| COc1ccc(NC(=O)Nc2ccccc2SC)cc1 | inconclusive: 35.5 µM [inhibitor, single point] |
| C=CCN1C(=NC(=O)CCC)SC2CS(=O)(=O)CC21 (configuration not stated) | inactive |
| O=C1NC(=S)N(c2ccccc2)C(=O)/C1=C/c1ccco1 | inconclusive: 7.94 µM [inhibitor, partial curve, poor fit] |
| Cc1cc2nn(-c3cccc4ccccc34)nc2cc1N | inconclusive: 31.6 µM [activator, single point] |
| Cc1ccc(C)c(OCC(=O)O/N=C(\N)c2ccccn2)c1 | inconclusive: 3.16 µM [activator, partial curve, poor fit] |
| CCc1cc(C=NC2CCCCC2)c(O)s1 | inconclusive: 3.55 µM [activator, partial curve, poor fit] |
| Cc1cccc(N(C)C(=O)C(Cc2ccccc2)NS(=O)(=O)c2cccc3nsnc23)c1 (configuration not stated) | inactive |
| Cc1cc(C)c(S(=O)(=O)N2CCCC2CNC(=O)c2ccc3c(c2)OCO3)c(C)c1 (configuration not stated) | inactive |
| COC(=O)Cc1c(C)c2ccc(O)c(CN3CCCC(C)C3)c2oc1=O (configuration not stated) | inconclusive: 12.6 µM [inhibitor, partial curve, poor fit] |
| Cc1ccc(-c2nc3ccc(Cl)cc3n2OC(=O)N(C)C)cc1 | inconclusive: 3.55 µM [activator, partial curve, poor fit] |
